Measured values: patent US11208403B2, “Pyridone derivatives having tetrahydropyranylmethyl groups” (DAIICHI SANKYO COMPANY, LIMITED, priority 2014, dated 2021)
At least one structure is not confirmed: it was looked up by name or label, or the drawing left a doubt.

Tested on: NIH-3T3-Axl #7
Assay: Antitumor test, NIH-3T3-Axl #7 tumors in NOG mice (Test Example 5)
Assay type: in vivo, mouse
Conditions: NIH-3T3-Axl #7 in female NOG mice, 5 continuous doses
Description: (Test Example 5: Antitumor Test)
NIH-3T3-Axl #7 (cells prepared by the transfection of NIH3T3 cells with pLXSN retrovirus having an insert of full-length Axl cDNA) was block-transplanted into female NOG mice.

COc1cc(-c2cnc(N)c(-c3ccc(NC(=O)c4cn(CC5CCOCC5)cc(-c5ccc(C)cn5)c4=O)cc3F)c2)ccc1OC[C@H]1COCCO1 [Example 124]
antitumor effect (3.1 mg/kg oral bid): almost completely inhibited tumor growth | antitumor effect (12.5 mg/kg oral bid): distinct tumor regression effect | antitumor effect (50 mg/kg oral bid): distinct tumor regression effect
